Earlier results, collected in US10966977B2, “Combination of anti-CD20 antibody, P13 kinase-delta selective inhibitor, and BTK inhibitor to treat b-cell proliferative disorders” (TG Therapeutics, Inc., priority 2016, dated 2021).
Where a name gives a salt, the structure may show the parent alone. At least one structure is not confirmed: it was looked up by name or label, or the drawing left a doubt.

Test system: relapsed and refractory hematologic malignancies
Settings: single agent

Structure (SMILES): CC(C)Oc1ccc(-c2nn([C@@H](C)c3oc4ccc(F)cc4c(=O)c3-c3cccc(F)c3)c3ncnc(N)c23)cc1F [TGR-1202, (S)-2-(1-(4-amino-3-(3-fluoro-4-isopropoxyphenyl)-1H-pyrazolo[3,4-d]pyrimidin-1-yl)ethyl)-6-fluoro-3-(3-fluorophenyl)-4H-chromen-4-one p-toluenesulfonic acid (PTSA) salt]
- doses with signs of clinical activity: ≥ 800 mg each day
